Laboratory results: PMC7455122

Molecular target: myc-tagged BioID2 fusion protein containing the C-terminus of PC1 (BioID2-CT1)
Experiment: proximity labelling; myc-BioID2-CT1 transfected, 50 uM biotin overnight, lysate on streptavidin Dynabeads 4 hours, immunoblot with ARHGAP antibodies (called BioID2 proximity ligation assay by the paper)

B1: endogenous ARHGAP35 (protein, UniProt Q9NRY4 1-1499)
chain: MMMARKQDVRIPTYNISVVGLSGTEKEKGQCGIGKSCLCNRFVRPSADEFHLDHTSVLSTSDFGGRVVNNDHFLYWGEVSRSLEDCVECKMHIVEQTEFIDDQTFQPHRSTALQPYIKRAAATKLASAEKLMYFCTDQLGLEQDFEQKQMPDGKLLVDGFLLGIDVSRGMNRNFDDQLKFVSNLYNQLAKTKKPIVVVLTKCDEGVERYIRDAHTFALSKKNLQVVETSARSNVNVDLAFSTLVQLIDKSRGKTKIIPYFEALKQQSQQIATAKDKYEWLVSRIVKNHNENWLSVSRKMQASPEYQDYVYLEGTQKAKKLFLQHIHRLKHEHIERRRKLYLAALPLAFEALIPNLDEIDHLSCIKAKKLLETKPEFLKWFVVLEETPWDATSHIDNMENERIPFDLMDTVPAEQLYEAHLEKLRNERKRVEMRRAFKENLETSPFITPGKPWEEARSFIMNEDFYQWLEESVYMDIYGKHQKQIIDKAKEEFQELLLEYSELFYELELDAKPSKEKMGVIQDVLGEEQRFKALQKLQAERDALILKHIHFVYHPTKETCPSCPACVDAKIEHLISSRFIRPSDRNQKNSLSDPNIDRINLVILGKDGLARELANEIRALCTNDDKYVIDGKMYELSLRPIEGNVRLPVNSFQTPTFQPHGCLCLYNSKESLSYVVESIEKSRESTLGRRDNHLVHLPLTLILVNKRGDTSGETLHSLIQQGQQIASKLQCVFLDPASAGIGYGRNINEKQISQVLKGLLDSKRNLNLVSSTASIKDLADVDLRIVMCLMCGDPFSADDILFPVLQSQTCKSSHCGSNNSVLLELPIGLHKKRIELSVLSYHSSFSIRKSRLVHGYIVFYSAKRKASLAMLRAFLCEVQDIIPIQLVALTDGAVDVLDNDLSREQLTEGEEIAQEIDGRFTSIPCSQPQHKLEIFHPFFKDVVEKKNIIEATHMYDNAAEACSTTEEVFNSPRAGSPLCNSNLQDSEEDIEPSYSLFREDTSLPSLSKDHSKLSMELEGNDGLSFIMSNFESKLNNKVPPPVKPKPPVHFEITKGDLSYLDQGHRDGQRKSVSSSPWLPQDGFDPSDYAEPMDAVVKPRNEEENIYSVPHDSTQGKIITIRNINKAQSNGSGNGSDSEMDTSSLERGRKVSIVSKPVLYRTRCTRLGRFASYRTSFSVGSDDELGPIRKKEEDQASQGYKGDNAVIPYETDEDPRRRNILRSLRRNTKKPKPKPRPSITKATWESNYFGVPLTTVVTPEKPIPIFIERCIEYIEATGLSTEGIYRVSGNKSEMESLQRQFDQDHNLDLAEKDFTVNTVAGAMKSFFSELPDPLVPYNMQIDLVEAHKINDREQKLHALKEVLKKFPKENHEVFKYVISHLNKVSHNNKVNLMTSENLSICFWPTLMRPDFSTMDALTATRTYQTIIELFIQQCPFFFYNRPITEPPGARPSSPSAVASTVPFLTSTPVTSQPSPPQSPPPTPQSPMQPLLPSQLQAEHTL
**Q.** For B1, which binding is on record?
**A.** binds

No constants are given. Whether binding was seen depends on the method and setting. In cells and extracts the contact can be indirect. Here binding means that the protein was enriched with, or labelled near, the bait; the list need not be complete.
